Data: patent EP0114563A1, “Cytostatically effective combination” (SCHERING AKTIENGESELLSCHAFT, priority 1982, dated 1984)
Where two headings read alike, the source gives them in different places.

System: human leukemic cells
Experiment: Inhibition of cell proliferation (growth kinetics by cell counting) in culture
Details: read-out: inhibition in %, based on a control free of active agent
Description: Every second day, the culture medium of each test batch was replaced by fresh medium and active agent.

## CCN(CC)C(=O)N[C@H]1C=C2c3cccc4[nH]cc(c34)C[C@H]2N(C)C1 [Lisuride, lisuride]
72 h
  inhibition at 20 µg/mL: 17%
144 h
  inhibition at 20 µg/mL: 36.5%
